Experimental data: patent US6570002
These are yes or no findings as the source states them, for the method shown. In cells and extracts the contact can be indirect. Some entries that bind do so weakly or less than the wild type. For part of these data: Sequences can lack the tags named with a protein.

Protein sequences, listed by entry. Tags and fused reporters are not part of them.
UniProt P10415: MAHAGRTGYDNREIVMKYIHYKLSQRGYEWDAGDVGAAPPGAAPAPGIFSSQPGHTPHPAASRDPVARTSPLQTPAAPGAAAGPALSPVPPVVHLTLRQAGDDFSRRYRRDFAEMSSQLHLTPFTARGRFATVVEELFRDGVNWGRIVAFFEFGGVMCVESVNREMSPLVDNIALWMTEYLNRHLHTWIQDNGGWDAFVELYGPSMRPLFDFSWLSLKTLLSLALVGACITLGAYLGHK
UniProt O14727: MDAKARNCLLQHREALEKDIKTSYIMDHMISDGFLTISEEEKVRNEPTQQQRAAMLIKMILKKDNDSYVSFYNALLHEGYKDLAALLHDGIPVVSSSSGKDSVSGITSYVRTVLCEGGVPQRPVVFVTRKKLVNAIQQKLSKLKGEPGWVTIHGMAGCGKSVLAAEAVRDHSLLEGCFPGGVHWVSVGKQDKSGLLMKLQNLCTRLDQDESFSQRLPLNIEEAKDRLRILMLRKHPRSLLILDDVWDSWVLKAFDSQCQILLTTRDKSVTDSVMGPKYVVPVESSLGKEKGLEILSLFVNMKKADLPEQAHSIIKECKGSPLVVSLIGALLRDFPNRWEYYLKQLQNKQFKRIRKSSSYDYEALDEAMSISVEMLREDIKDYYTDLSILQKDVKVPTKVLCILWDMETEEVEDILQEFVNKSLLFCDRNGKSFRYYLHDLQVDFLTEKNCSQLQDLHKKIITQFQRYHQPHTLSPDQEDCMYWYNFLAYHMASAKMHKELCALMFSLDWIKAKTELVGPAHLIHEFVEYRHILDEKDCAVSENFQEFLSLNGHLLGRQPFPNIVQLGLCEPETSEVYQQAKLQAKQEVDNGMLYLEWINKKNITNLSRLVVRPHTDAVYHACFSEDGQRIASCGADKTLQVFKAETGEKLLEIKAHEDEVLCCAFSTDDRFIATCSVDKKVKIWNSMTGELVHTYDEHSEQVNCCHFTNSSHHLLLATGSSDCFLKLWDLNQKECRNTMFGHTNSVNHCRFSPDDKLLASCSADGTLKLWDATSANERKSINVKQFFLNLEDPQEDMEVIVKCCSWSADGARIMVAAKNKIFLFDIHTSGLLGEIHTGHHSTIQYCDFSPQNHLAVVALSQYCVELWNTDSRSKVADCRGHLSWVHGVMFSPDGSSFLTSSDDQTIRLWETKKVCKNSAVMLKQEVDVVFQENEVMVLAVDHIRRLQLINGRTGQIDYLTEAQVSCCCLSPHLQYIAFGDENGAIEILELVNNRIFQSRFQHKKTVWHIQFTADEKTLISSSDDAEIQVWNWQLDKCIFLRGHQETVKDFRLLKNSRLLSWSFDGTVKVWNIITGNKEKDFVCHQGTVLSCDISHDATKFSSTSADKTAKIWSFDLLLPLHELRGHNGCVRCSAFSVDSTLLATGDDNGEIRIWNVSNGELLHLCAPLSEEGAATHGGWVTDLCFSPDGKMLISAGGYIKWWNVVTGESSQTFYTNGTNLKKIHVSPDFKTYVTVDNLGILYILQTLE
UniProt Q07817: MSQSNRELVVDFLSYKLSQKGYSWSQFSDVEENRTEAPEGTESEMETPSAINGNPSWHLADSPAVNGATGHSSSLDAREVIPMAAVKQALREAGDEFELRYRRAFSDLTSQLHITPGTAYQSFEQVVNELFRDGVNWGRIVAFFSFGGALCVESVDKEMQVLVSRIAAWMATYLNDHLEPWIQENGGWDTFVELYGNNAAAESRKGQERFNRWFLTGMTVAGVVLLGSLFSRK

How the values were obtained:
[1] = molecular target: Bcl-2 (UniProt P10415); test: co-immunoprecipitation from COS-1 cell lysates (FIG. 7B)
[2] = molecular target: Apaf-1 (UniProt O14727); test: co-immunoprecipitation from transfected cells (FIGS. 9F-J)
[3] = molecular target: Bcl-2 (UniProt P10415); test: yeast two-hybrid / co-immunoprecipitation from COS-1 cell lysates (FIG. 6)
[4] = molecular target: HA epitope-tagged Apaf-1 (UniProt O14727); test: co-immunoprecipitation with anti-HA antibody (FIG. 9C)
[5] = molecular target: Bcl-2 (UniProt P10415); test: yeast two-hybrid and co-immunoprecipitation on COS-1 cell lysates (FIGS. 6, 7, 8)
[6] = molecular target: Apaf-1 (UniProt O14727); test: co-immunoprecipitation of endogenous proteins from 293T cell extracts with anti-Aven-b serum (FIG. 9E)
[7] = molecular target: Apaf-1 (UniProt O14727); test: co-immunoprecipitation of endogenous proteins from HeLa cell lysates with anti-Aven-a serum (FIG. 9D)
[8] = molecular target: Apaf-1 (UniProt O14727); test: co-immunoprecipitation (FIGS. 9A-E)
[9] = molecular target: Apaf-1 (UniProt O14727); test: co-immunoprecipitation with anti-HA antibody from co-transfected COS-1 cells (FIG. 9A)
[10] = molecular target: HA epitope-tagged Apaf-1 (UniProt O14727); test: co-immunoprecipitation with anti-Aven antibodies, immunoblot with anti-HA (FIG. 9B)
[11] = molecular target: Bcl-xL (human) (UniProt Q07817); test: co-immunoprecipitation from COS-1 cells, HA-tagged Bcl-xL with Flag-tagged N-terminal deletion Aven (FIG. 8A)

Measured: binding

B1: Aven (protein)
chain: MQAERGARGGRGRRPGRGRPGGDRHSERPGAAAAVARGGGGGGGGDGGGRRGRGRGRGFRGARGGRGGGGAPRGSRREPGGWGAGASAPVEDDSDAETYGEENDEQGNYSKRKIVSNWDRYQDIEKEVNNESGESQRGTDFSVLLSSAGDSFSQFRFAEEKEWDSEASCPKQNSAFYVDSELLVRALQELPLCLRLNVAAELVQGTVPLEVPQVKPKRTDDGKGLGMQLKGPLGPGGRGPIFELKSVAAGCPVLLGKDNPSPGPSRDSQKPTSPLQSAGDHLEEELDLLLNLDAPIKEGDNILPDQTSQDLKSKEDGEVVQEEEVCAKPSVTEEKNMEPEQPSTSKNVTEEELEDWLDSMIS
binds: [1] | [2] | [3] | [4] | [5] | [6] | [7] | [8]

B2: HA epitope-tagged full length Aven (protein, not shown: small tags and cut ends)
chain: B1 chain
binds: [9] | [10]

B3: Flag epitope-tagged N-terminal deletion Aven (protein, not shown: small tags and cut ends)
chain: GSRREPGGWGAGASAPVEDDSDAETYGEENDEQGNYSKRKIVSNWDRYQDIEKEVNNESGESQRGTDFSVLLSSAGDSFSQFRFAEEKEWDSEASCPKQNSAFYVDSELLVRALQELPLCLRLNVAAELVQGTVPLEVPQVKPKRTDDGKGLGMQLKGPLGPGGRGPIFELKSVAAGCPVLLGKDNPSPGPSRDSQKPTSPLQSAGDHLEEELDLLLNLDAPIKEGDNILPDQTSQDLKSKEDGEVVQEEEVCAKPSVTEEKNMEPEQPSTSKNVTEEELEDWLDSMIS
binds: [11]

B4: HA-tagged ΔN73 Aven (protein, not shown: small tags and cut ends)
chain: B3 chain
binds: [9]
